For at least one compound, name, drawing or mass did not settle the structure.
Biological target: T1, Glyoxal oxidase (Phanerodontia chrysosporium, UniProt Q01772)
T1 sequence (Q01772 23-559): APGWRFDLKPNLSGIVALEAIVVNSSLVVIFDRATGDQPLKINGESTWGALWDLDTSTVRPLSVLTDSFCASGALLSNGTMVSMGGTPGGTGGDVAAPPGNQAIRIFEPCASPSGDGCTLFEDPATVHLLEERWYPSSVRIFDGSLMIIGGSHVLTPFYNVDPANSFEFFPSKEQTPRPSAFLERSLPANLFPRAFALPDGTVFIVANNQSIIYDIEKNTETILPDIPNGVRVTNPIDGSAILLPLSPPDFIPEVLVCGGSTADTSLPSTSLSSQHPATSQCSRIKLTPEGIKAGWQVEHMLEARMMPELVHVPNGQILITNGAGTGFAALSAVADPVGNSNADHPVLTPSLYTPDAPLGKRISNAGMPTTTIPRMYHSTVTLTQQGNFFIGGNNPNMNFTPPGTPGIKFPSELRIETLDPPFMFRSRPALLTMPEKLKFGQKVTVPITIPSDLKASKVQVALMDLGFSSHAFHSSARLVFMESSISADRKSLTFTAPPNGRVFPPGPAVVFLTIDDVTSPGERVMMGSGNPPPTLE
Experiment: Effect of PAM reductant on glyoxal oxidase activity and glyoxylate assays
Type: biochemical
Parameters: Dr. James Whittaker, OGI School of Science and Engineering (gift)
Conditions: reductant for PAM catalysis
From the text: Application of the assays of the invention to the quantification of PAM-produced glyoxylate required two alterations of the PAM assay, as well as one change to the common glycolate oxidase assay which has previously been mentioned. Without these specific alterations the assays would be rendered non-stoichiometric and produce anomalous data. First, to address the changes to the PAM assay, a new method for enzyme protection due to hydroxyl radical formation produced during catalysis was necessary as the use of catalase has previously been the method of choice. Catalase catalyzes the disproportionate reaction of H2O2 to H2O and O2, and removal of hydrogen peroxide is detrimental to the assay methods. […] Second, a reducing agent is necessary for the PAM catalysis. Ascorbate is frequently used in the art for this purpose. […] As an alternative to the foregoing, ascorbate may be used in the PAM-catalyzed reaction, but later removed (e.g., by deactivating with ascorbate oxidase) prior to assaying for glyoxylate.

Question: For `O=C1O[C@H]([C@@H](O)CO)C(O)=C1O` [ascorbate], which “inhibition of the enzyme activity of glyoxal oxidase and of the spectrophotometric, fluorescent and luminescent assays” value is on record?
Answer: severely inhibit
